Measurements taken from patent US20110046220A1, “PARABEN COMPOUNDS” (CENTRE NATIONAL DE LA RECHERCHE SCIENTIFIQUE, priority 2007, published 2011).
Some results were stated once for a whole list of compounds, not compound by compound. Some ranges recur; such a range may be that of the whole group of compounds.

test system: Staphylococcus aureus strain ATCC 6538; test: MIC determination by twofold dilution in microplates against Staphylococcus aureus; assay type: cell-based; details: S. aureus, compared MIC
Description: Antimicrobial activity was tested by inhibition of growth of Gram positive bacteria Staphylococcus aureus strain ATCC 6538. All extracts and bacterial isolates from the sponge were screened for this antibacterial activity. Extracts and bacterial strains were also tested against gram negative gamma-proteobacteria (including Vibrios) and alpha-proteobacteria (Rhodobacterales), against Gram positive Bacillales (including Bacillus sp.) and against the yeast Candida albicans.
MICs of each of the compounds 1-9 according to the invention and of commercial methyl- and propyl parabens of the prior art were determined by a twofold dilution method from an initial 100 μg/mL concentration. […] Microplates were incubated for 24 hours at 30° C. with shaking (500 rpm) and optical density at 600 nm was read to estimate bacterial growth. The methyl- and propyl parabens of the prior art were obtained from the company Interchimie in Bobigny, France. […]
The results are reported in the following table 3 in which the MIC is reported in μg/ml and expressed, as in table 1, as the interval a-b, where a is the highest concentration tested at which microorganism are growing and b the lowest concentration that causes 100% growth inhibition.

| SMILES | fold more active than methyl and propyl synthetic parabens (and natural ethyl and butyl parabens) [fold] |
| --- | --- |
| CCCCCCCCCCCCOC(=O)c1ccc(O)cc1 [Compound 8, 4-Hydroxy-benzoic acid dodecyl ester] | 2 to 100 |
| CCCCCCCCOC(=O)c1ccc(O)cc1 [Compound 3, 4-Hydroxy-benzoic acid octyl ester] | 2 to 100 |
| CC(C)CCCCCCCCOC(=O)c1ccc(O)cc1 [Compound 6] | 2 to 100 |
| CCCCCCCCCCOC(=O)c1ccc(O)cc1 [Compound 4, 4-Hydroxy-benzoic acid decyl ester] | 2 to 100 |
